Measurements reported in patent US9101628B2, “Methods and composition of treating a flaviviridae family viral infection” (The Board of Trustees of the Leland Stanford Junior …, priority 2007, dated 2015).

Test system: HCV RNA replication
Assay: RNA replication inhibition assay (luciferase reporter-linked HCV genome)
Conditions: Hepatitis C virus, percentage of untreated control population

SMILES: Oc1cc2ncn(Cc3ccc(Cl)cc3)c2cc1O [Compound 62]
- activity at 5 µM (read-out: Residual Luciferase activity, 5 micromolar): < 20%
- activity at 10 µM (read-out: Residual Luciferase activity, 10 micromolar): < 20%
